The source of these data is publication PMC6294004.

Among the targets are GST-IFT140 (Drosophila); GST-Klp64D (Drosophila); GST-IFT144 (Drosophila).
Holding throughout (experiment): pull-down; GST or GST fusion protein on glutathione Sepharose 4B beads; pull-down buffer 20 mM Tris pH 7.5, 150 mM NaCl, 0.5 M EDTA, 10% glycerol, 0.1% Triton X100, 1 mM DTT; blot with anti-GST or anti-MBP; proteins from E. coli, bacterial lysates prepared; 'purified recombinant GST-fusion proteins' said for Fig. 7a

These are yes or no findings as the source states them, for the method shown. Binding seen in cells or lysates may run through a third protein. For some of these results: Binding can be weak; no strength is given. For some of these results: Where a sequence is shown, tags or fusion partners need not be part of it.

B1: MBP-Klp61F (protein, UniProt P46863 1-1066)
chain: MDISGGNTSRQPQKKSNQNIQVYVRVRPLNSRERCIRSAEVVDVVGPREVVTRHTLDSKLTKKFTFDRSFGPESKQCDVYSVVVSPLIEEVLNGYNCTVFAYGQTGTGKTHTMVGNETAELKSSWEDDSDIGIIPRALSHLFDELRMMEVEYTMRISYLELYNEELCDLLSTDDTTKIRIFDDSTKKGSVIIQGLEEIPVHSKDDVYKLLEKGKERRKTATTLMNAQSSRSHTVFSIVVHIRENGIEGEDMLKIGKLNLVDLAGSENVSKAGNEKGIRVRETVNINQSLLTLGRVITALVDRAPHVPYRESKLTRLLQESLGGRTKTSIIATISPGHKDIEETLSTLEYAHRAKNIQNKPEVNQKLTKKTVLKEYTEEIDKLKRDLMAARDKNGIYLAEETYGEITLKLESQNRELNEKMLLLKALKDELQNKEKIFSEVSMSLVEKTQELKKTEENLLNTKGTLLLTKKVLTKTKRRYKEKKELVASHMKTEQVLTTQAQEILAAADLATDDTHQLHGTIERRRELDEKIRRSCDQFKDRMQDNLEMIGGSLNLYQDQQAALKEQLSQEMVNSSYVSQRLALNSSKSIEMLKEMCAQSLQDQTNLHNKLIGEVMKISDQHSQAFVAKLMEQMQQQQLLMSKEIQTNLQVIEENNQRHKAMLDSMQEKFATIIDSSLQSVEEHAKQMHKKLEQLGAMSLPDAEELQNLQEELANERALAQQEDALLESMMMQMEQIKNLRSKNSISMSVHLNKMEESRLTRNHRIDDIKSGIQDYQKLGIEASQSAQAELTSQMEAGMLCLDQGVANCSMLQVHMKNLNQKYEKETNENVGSVRVHHNQVEIICQESKQQLEAVQEKTEVNLEQMVDARQQLITEDRQRFIGHATVATDLVQESNRQFSEHAEHQRQQLQICEQELVRFQQSELKTYAPTGTTPSKRDFVYPRTLVATSPHQEIVRRYRQELDWSDLDTTATIDECSEGEHDVSMHSVQELSETETIMNSTPIEPVDGVTVKRGCGTTRNSNSNALKPPVATGGKRSSSLSRSLTPSKTSPRGSPAFVRHNKENVA
As to B1, in the assay with GST-IFT140 (Drosophila), the binding result is listed as “no binding”.

B2: Arm34-87 (domain or fragment, UniProt P18824 34-87)
chain: MWQQNSYLGDSGIHSGAVTQVPSLSGKEDEEMEGDPLMFDLDTGFPQNFTQDQV
For the molecule B2, the binding entry in the assay with GST-Klp64D (Drosophila) is “no binding”; with GST-IFT144 (Drosophila), “no binding”; with GST-IFT140 (Drosophila) it was “binds”.
